The supplement of paper PMC12067093, “Discovery and optimisation of a covalent ligand for TRIM25 and its application to targeted protein ubiquitination” (Chemical Science, 2025)
This is one part of the list.

Protein sequences, listed by entry. Tags and fused reporters are not part of them. Lines headed by an entry give the natural chain unless they say otherwise; changes in a name come on top.
UniProt Q7Z2W4: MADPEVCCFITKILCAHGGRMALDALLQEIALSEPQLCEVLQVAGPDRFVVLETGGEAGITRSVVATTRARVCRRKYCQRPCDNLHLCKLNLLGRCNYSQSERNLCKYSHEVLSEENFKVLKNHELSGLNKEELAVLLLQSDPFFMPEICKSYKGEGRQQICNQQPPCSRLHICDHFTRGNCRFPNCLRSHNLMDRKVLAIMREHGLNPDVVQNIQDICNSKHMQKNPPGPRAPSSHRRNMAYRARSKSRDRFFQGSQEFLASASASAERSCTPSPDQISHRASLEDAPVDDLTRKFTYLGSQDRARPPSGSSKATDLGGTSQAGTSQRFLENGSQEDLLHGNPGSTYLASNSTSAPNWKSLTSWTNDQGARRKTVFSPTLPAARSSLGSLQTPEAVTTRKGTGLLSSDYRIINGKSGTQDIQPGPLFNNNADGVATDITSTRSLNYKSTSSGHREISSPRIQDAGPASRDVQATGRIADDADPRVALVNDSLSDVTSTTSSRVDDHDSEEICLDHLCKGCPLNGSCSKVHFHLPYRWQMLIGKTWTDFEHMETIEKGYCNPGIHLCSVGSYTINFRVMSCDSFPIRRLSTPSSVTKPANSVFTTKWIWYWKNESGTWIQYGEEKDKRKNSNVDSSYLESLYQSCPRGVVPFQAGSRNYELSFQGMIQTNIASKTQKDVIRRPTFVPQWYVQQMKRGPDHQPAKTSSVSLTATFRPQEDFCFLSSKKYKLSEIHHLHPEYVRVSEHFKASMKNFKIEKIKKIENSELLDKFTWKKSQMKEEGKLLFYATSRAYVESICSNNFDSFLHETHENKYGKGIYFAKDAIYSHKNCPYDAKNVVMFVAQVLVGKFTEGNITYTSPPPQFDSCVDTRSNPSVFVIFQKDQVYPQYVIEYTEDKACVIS
UniProt Q9H0D6: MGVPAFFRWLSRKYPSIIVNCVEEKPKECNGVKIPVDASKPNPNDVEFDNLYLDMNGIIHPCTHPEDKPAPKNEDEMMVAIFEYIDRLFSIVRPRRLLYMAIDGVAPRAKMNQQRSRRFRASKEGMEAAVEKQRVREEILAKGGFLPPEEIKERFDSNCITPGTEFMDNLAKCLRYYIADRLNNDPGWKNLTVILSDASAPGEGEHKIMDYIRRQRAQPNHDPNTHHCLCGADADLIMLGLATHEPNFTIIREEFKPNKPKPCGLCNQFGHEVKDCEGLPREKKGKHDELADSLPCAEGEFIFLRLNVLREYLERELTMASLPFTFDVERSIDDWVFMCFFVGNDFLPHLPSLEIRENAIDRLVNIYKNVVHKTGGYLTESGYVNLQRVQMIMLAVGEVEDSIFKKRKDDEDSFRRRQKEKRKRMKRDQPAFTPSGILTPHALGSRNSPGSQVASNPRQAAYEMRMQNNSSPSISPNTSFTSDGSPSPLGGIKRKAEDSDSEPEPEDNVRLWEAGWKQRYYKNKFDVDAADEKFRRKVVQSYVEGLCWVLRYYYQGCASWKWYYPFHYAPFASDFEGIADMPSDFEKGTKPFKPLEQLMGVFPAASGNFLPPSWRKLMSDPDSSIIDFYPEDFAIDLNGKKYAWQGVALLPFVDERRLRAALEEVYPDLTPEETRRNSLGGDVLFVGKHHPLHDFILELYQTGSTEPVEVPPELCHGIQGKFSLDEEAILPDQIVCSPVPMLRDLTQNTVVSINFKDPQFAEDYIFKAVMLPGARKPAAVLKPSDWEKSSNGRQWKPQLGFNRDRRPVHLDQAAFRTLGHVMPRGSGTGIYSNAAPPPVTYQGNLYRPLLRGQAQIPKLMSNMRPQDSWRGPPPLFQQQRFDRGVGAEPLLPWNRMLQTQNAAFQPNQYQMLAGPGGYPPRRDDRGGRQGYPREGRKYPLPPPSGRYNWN
UniProt P13010: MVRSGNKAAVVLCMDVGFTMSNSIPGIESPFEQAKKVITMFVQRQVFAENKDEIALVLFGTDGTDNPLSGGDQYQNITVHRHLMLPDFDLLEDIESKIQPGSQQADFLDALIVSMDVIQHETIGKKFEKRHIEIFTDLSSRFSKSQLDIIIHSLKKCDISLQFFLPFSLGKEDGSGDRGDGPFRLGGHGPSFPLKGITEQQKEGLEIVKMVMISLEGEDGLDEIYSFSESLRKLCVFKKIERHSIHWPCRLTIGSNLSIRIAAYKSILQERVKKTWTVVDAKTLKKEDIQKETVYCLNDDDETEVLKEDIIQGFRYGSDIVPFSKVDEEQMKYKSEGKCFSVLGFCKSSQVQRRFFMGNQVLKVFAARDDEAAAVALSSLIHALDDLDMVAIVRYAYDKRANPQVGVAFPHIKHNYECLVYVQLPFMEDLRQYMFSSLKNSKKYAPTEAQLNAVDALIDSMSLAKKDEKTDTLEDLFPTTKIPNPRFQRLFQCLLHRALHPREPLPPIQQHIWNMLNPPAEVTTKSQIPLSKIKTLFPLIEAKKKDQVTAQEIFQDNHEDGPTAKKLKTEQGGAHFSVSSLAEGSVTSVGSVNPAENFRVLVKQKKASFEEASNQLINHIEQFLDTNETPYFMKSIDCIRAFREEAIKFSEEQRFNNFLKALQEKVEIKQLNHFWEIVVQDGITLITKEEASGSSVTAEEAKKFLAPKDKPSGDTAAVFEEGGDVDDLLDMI
UniProt A2A288: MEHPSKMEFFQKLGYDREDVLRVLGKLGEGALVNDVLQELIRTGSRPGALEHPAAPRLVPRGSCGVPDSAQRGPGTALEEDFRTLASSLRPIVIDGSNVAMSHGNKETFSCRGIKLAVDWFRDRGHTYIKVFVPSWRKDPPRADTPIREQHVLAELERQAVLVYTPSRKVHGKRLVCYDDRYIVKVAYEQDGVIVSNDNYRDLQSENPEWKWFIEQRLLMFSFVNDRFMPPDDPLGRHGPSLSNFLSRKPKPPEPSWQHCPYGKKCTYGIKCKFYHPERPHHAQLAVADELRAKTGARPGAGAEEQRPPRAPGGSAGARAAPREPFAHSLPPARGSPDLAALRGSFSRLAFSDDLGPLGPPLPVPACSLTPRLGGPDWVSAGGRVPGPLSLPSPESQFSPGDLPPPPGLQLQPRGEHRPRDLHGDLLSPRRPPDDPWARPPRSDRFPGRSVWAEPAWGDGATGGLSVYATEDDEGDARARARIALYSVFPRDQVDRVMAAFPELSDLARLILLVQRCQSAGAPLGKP
UniProt Q8IWR0: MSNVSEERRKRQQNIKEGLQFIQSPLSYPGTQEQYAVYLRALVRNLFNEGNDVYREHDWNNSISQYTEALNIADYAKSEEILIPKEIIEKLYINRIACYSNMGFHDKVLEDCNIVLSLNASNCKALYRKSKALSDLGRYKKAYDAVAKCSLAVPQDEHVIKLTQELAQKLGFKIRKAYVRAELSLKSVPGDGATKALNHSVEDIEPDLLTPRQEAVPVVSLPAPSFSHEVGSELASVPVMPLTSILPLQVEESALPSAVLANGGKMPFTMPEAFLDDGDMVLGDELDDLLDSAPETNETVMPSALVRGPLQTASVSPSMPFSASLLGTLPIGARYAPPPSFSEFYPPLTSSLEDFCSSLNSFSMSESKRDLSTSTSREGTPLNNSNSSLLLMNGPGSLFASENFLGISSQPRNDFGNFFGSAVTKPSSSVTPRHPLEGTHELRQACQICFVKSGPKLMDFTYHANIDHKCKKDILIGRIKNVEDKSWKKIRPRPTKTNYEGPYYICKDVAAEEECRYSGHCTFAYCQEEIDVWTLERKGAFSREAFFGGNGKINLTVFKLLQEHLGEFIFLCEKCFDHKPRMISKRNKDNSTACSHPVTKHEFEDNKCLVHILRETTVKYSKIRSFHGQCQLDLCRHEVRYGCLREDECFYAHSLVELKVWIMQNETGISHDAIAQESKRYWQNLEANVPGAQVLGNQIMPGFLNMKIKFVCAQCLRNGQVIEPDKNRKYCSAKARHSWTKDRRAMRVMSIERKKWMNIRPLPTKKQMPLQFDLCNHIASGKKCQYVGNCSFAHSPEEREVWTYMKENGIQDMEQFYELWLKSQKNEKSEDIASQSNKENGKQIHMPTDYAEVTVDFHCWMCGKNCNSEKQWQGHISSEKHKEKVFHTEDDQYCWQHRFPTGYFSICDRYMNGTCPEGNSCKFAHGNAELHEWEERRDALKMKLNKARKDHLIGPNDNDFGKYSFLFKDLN
UniProt O43298: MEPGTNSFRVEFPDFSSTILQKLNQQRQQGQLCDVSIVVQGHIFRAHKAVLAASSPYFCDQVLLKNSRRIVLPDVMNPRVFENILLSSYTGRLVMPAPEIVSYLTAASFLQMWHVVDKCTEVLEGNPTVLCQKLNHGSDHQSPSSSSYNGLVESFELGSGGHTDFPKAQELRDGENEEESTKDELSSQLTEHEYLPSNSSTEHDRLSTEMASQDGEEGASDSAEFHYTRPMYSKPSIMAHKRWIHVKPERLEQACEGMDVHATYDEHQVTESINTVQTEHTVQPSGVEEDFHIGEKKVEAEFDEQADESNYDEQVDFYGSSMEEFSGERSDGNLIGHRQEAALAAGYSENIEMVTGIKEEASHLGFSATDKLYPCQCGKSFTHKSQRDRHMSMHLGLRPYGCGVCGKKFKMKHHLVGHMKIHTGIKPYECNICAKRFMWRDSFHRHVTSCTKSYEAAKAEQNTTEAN
UniProt P54577: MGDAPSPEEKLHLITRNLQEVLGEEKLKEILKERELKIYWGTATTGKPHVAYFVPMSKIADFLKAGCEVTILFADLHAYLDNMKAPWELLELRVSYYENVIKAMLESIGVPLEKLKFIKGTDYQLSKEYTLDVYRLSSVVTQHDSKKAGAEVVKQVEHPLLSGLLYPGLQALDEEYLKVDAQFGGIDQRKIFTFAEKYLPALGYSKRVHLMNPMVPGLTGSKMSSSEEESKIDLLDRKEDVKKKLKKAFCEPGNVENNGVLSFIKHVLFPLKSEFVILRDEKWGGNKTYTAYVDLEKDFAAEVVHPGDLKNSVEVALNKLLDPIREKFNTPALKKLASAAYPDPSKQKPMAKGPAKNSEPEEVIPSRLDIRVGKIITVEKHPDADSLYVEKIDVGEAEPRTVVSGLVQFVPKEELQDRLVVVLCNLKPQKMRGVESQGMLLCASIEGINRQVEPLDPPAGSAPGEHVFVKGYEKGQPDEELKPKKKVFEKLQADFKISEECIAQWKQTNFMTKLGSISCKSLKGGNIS
UniProt Q86T24: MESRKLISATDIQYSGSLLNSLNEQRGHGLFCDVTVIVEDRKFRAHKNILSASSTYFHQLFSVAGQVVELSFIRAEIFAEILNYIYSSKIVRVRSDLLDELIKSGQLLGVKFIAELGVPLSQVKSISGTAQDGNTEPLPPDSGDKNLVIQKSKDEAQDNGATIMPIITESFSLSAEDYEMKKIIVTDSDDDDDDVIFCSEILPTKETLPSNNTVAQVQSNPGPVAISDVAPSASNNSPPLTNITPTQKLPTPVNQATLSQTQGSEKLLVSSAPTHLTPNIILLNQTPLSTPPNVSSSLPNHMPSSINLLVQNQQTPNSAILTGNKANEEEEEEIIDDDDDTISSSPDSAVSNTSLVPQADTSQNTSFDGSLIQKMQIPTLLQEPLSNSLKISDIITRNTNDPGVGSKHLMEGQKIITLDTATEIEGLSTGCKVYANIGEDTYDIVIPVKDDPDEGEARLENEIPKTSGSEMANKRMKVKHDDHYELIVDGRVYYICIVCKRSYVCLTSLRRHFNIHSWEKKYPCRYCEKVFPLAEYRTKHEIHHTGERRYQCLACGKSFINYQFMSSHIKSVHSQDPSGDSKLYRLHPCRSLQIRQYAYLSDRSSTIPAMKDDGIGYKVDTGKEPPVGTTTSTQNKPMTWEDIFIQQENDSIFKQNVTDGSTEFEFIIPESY
UniProt Q96H79: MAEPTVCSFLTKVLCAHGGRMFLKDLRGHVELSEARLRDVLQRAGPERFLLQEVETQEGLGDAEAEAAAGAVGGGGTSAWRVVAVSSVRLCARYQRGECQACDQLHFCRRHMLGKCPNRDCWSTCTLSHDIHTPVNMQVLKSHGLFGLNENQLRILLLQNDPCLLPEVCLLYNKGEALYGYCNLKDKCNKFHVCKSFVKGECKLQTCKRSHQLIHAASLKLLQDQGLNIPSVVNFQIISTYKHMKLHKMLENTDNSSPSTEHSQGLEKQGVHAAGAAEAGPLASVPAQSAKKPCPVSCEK
UniProt Q86WB0: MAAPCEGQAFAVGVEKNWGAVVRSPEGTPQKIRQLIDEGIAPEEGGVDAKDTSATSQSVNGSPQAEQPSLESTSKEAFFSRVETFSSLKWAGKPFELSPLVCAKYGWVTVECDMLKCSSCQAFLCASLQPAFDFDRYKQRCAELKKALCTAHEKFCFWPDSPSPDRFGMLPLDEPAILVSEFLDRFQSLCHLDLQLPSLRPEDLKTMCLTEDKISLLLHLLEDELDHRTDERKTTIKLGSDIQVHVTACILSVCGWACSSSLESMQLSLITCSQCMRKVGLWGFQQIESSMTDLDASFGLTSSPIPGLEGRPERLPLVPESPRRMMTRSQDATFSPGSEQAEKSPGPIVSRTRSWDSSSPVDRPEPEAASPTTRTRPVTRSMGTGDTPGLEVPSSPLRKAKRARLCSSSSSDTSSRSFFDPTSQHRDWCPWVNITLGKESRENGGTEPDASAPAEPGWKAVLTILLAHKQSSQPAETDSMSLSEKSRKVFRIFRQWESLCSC

Compound: Cc1cc(ccc1-c1ccccc1)C(=O)N1CCCN(CC1)C(=O)CCl [compound 10]
Assay: probe-labelled cysteine peptide fold change vs DMSO (competition) (log2 fold change); higher = less target engagement (more negative = stronger competition)
Conditions: THP-1, incubation time: 4 h
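Further: competitive profiling in live THP-1 cells: cysteine peptides tagged with an iodoacetamide desthiobiotin (IA-DTB) probe, intensity after compound treatment relative to DMSO-treated cells.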

Target | probe-labelled cysteine peptide fold change (10 µM) | probe-labelled cysteine peptide fold change (50 µM)
ZC3HAV1_Q7Z2W4_7_ADPEVCCFITK (UniProt Q7Z2W4) | 0.158 | 0.175
ZBED4_O75132_156_DLSTSCLMR (UniProt O75132) | -0.152 | -0.341
XRN2_Q9H0D6_296_KGKHDELADSLPCAEGEFIFLR (UniProt Q9H0D6) | 0.00821 | -0.143
XRCC5_P13010_157_KCDISLQFFLPFSLGKEDGSGDRGDGPFR (UniProt P13010) | -0.0168 | -0.586
ZC3H12D_A2A288_111_ETFSCR (UniProt A2A288) | -0.109 | -0.65
ZC3H7A_Q8IWR0_572_LLQEHLGEFIFLCEK (UniProt Q8IWR0) | -0.0444 | -0.117
ZADH2_Q8N4Q0_55_DCPVPLPGDGDLLVR (UniProt Q8N4Q0) | -0.148 | 0.0224
ZBTB1_Q9Y2K1_532_HSACPFR (UniProt Q9Y2K1) | 0.00859 | -0.174
ZBTB43_O43298_450_HVTSCTK (UniProt O43298) | -0.0463 | -0.0117
ZC3HAV1_Q7Z2W4_96_CNYSQSER (UniProt Q7Z2W4) | 0.0615 | -0.122
YARS_P54577_519_LGSISCK (UniProt P54577) | -0.249 | -0.105
ZC3H14_Q6PJT7_634_CLFVHPNCK (UniProt Q6PJT7) | 0.165 | -0.196
XRN2_Q9H0D6_276_DCEGLPR (UniProt Q9H0D6) | 0.0921 | 0.174
ZBTB33_Q86T24_32_GHGLFCDVTVIVEDR (UniProt Q86T24) | 0.122 | 0.202
ZCCHC8_Q6NZY4_607_SEAGHASSPDSEVTSLCQK (UniProt Q6NZY4) | 0.0683 | -0.191
ZC3H15_Q8WU90_105_SVVCAFFK (UniProt Q8WU90) | -0.0248 | -0.12
YARS_P54577_67_AGCEVTILFADLHAYLDNMK (UniProt P54577) | 0.259 | 0.586

Looked up above.
probe-labelled cysteine peptide fold change (10 µM), ZBTB33_Q86T24_32_GHGLFCDVTVIVEDR (UniProt Q86T24) is entered as 0.122
probe-labelled cysteine peptide fold change (10 µM), ZC3HAV1_Q7Z2W4_7_ADPEVCCFITK (UniProt Q7Z2W4) is entered as 0.158

Following part

Target | probe-labelled cysteine peptide fold change (10 µM) | probe-labelled cysteine peptide fold change (50 µM)
ZCCHC3_Q9NUD5_385_RGHAFAQCPK (UniProt Q9NUD5) | 0.0637 | 0.102
ZC3HAV1_Q7Z2W4_78_YCQRPCDNLHLCK (UniProt Q7Z2W4) | 0.0823 | -0.0451
ZFAND6_Q6FIF0_170_CGNVYCGVHR (UniProt Q6FIF0) | 0.218 | 0.169
ZBTB7B_O15156_23_GSPEDDLIGIPFPDHSSELLSCLNEQR (UniProt O15156) | -0.485 | 0.416
ZC3HAV1L_Q96H79_163_ILLLQNDPCLLPEVCLLYNK (UniProt Q96H79) | 0.129 | 0.0761
ZCCHC7_Q8N3Z6_296_MLDHSCLFR (UniProt Q8N3Z6) | -0.0958 | -0.31
ZFC3H1_O60293_241_QIQLELECINKDEK (UniProt O60293) | -0.0813 | -0.55
ZC3H7A_Q8IWR0_775_QMPLQFDLCNHIASGK (UniProt Q8IWR0) | 0.00359 | -0.0723
ZC3H7B_Q9UGR2_617_QFQEHFQFDVCR (UniProt Q9UGR2) | 0.128 | 0.388
ZC3HC1_Q86WB0_190_FQSLCHLDLQLPSLRPEDLK (UniProt Q86WB0) | 0.314 | 0.324
ZC3H12D_A2A288_64_GSCGVPDSAQR (UniProt A2A288) | -0.323 | -0.636
ZFAND1_Q8TCF1_10_AELDIGQHCQVEHCR (UniProt Q8TCF1) | 0.314 | -0.0496
ZC3H7B_Q9UGR2_576_DSPSVCSNLAAK (UniProt Q9UGR2) | -0.047 | -0.193
ZBTB14_O43829_52_CVLAACSTYFK (UniProt O43829) | -0.261 | 0.226
ZC3HAV1L_Q96H79_7_AEPTVCSFLTK (UniProt Q96H79) | 0.0522 | -0.401
ZC3HC1_Q86WB0_112_YGWVTVECDMLK (UniProt Q86WB0) | -0.111 | -0.396
XRCC5_P13010_157_KCDISLQFFLPFSLGK (UniProt P13010) | -0.0246 | 0.157
